Assay results taken from publication doi:10.1101/668129.
These are yes or no findings as the source states them, for the method shown. In cells and extracts the contact can be indirect.

Amino acid sequences for entries named in this document (tags omitted).
UniProt P51617: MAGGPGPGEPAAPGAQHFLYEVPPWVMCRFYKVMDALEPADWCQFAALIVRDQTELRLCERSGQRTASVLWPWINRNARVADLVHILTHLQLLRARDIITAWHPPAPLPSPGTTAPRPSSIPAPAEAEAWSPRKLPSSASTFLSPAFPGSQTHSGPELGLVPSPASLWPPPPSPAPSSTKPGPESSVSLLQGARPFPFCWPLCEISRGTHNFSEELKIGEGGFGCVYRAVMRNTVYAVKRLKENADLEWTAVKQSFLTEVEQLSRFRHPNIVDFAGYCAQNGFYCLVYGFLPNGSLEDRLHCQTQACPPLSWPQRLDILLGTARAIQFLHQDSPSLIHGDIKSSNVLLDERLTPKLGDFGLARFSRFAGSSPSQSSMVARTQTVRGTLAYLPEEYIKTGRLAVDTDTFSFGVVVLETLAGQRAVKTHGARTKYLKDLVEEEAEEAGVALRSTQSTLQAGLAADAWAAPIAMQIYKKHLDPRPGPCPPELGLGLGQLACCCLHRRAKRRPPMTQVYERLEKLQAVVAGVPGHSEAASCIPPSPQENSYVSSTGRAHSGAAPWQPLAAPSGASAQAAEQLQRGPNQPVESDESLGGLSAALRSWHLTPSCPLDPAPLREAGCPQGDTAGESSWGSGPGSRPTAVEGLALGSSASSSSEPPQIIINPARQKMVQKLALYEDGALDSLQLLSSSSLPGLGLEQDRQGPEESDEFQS
UniProt O43639: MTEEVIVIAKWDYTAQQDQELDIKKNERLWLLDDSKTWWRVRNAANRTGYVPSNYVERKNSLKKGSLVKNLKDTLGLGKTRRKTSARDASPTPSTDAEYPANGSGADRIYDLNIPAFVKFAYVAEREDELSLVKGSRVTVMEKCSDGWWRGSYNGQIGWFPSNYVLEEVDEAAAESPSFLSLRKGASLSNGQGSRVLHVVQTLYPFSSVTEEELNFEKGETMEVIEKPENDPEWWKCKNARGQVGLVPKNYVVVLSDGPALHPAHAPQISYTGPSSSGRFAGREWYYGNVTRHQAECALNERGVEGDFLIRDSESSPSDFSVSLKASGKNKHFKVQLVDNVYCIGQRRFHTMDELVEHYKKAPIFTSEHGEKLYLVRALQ

Molecular target: interleukin-1 type I receptor kinase-1 (IRAK-1) (human (endogenous in human endothelial cells)) (UniProt P51617)
Assay: co-IP

binding: no binding
Substance: Nck2 (from UniProt O43639 1-380)
